According to PubChem BioAssay AID2685 (National Center for Advancing Translational Sciences (NCATS), 2010):
Some of the results follow. The main result of the screen is listed elsewhere. These columns were measured beside it and carry no call. Compounds called inactive in the main read-out are mostly missing here. Potencies come from curve fits of mixed quality, noted in brackets.

Assay: qHTS Assay for Lipid Storage Modulators in Drosophila S3 Cells;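 for cell number change: cells counted by Cell Tracker Red CMTPX staining in the red channel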
Conditions: BODIPY lipid droplet fluorescence, 18-24 h; for cell number change: measured here: cell count max response, cells fed with added oleic acid
How it was run: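 Drosophila S3 cells got compounds at several concentrations plus oleic acid (400 uM solution). Laser-scanning cytometry with 488 nm excitation read lipid droplets at 500-530 nm and cells at 575-640 nm. Percent activity was relative to 20 uM Triacsin C.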

[1] = measured here: lipid fluorescence (Fed channel) AC50, cells fed with added oleic acid
[2] = measured here: cell number channel AC50, cells fed with added oleic acid

Row | Compound | cell number change [%] | AC50 [1] | AC50 [2]
1 | O=C(NC(=S)Nc1ccccc1N1CCOCC1)c1cccs1 | -2.22 | 1.64 µM [rising, partial curve] | –
2 | Clc1cccc(CNCCNCc2cccc(Cl)c2)c1 | 53.6 | – | 5.8 µM [rising, partial curve]
3 | Nc1cc(Cl)ccc1N1CCCC1 | 43.7 | 29.1 µM [rising, single point] | 20.6 µM [rising, single point]
4 | CC(C)COC(=O)Nc1nnc(Cc2ccccc2)s1 | 1.3 | – | 0.58 µM [rising, single point]
5 | COc1ccc(N2CCN(C(=O)c3ccc(Br)cc3)CC2)c([N+](=O)[O-])c1 | -31.5 | – | –
6 | COc1ccc(C)cc1S(=O)(=O)N(CC(=O)NCc1ccc(Cl)cc1)Cc1ccccc1 | 111 | 14.6 µM [rising, partial curve] | 9.2 µM [rising, partial curve]
7 | Cc1ccc(Cc2c(C)nc3nc(SCC(=O)NCCCN4CCCCC4)nn3c2C)cc1 | 31.4 | – | 13 µM [rising, partial curve, poor fit]
8 | Cc1sc2nc(C(C)Nc3ccccc3N3CCOCC3)[nH]c(=O)c2c1C (stereo unspecified) | 40.4 | 18.4 µM [falling, single point] | 20.6 µM [rising, single point]
9 | COc1cc(OC)cc(-c2nnc(SCC(=O)N3CCOCC3)o2)c1 | -27.3 | 29.1 µM [falling, single point] | –
10 | NS(=O)(=O)c1ccc(NC(=O)COC(=O)c2ccc(Cl)nc2)cc1 | -51.7 | – | –
11 | Cc1ccc(CN=C2NC(=O)C(CC(=O)NCCc3ccccc3)S2)cc1 (stereo unspecified) | 20.3 | – | –
12 | CCOc1ccc(NC(=S)NCCCN2CCN(C3CCCCC3)CC2)cc1 | -25 | 0.13 µM [falling, full curve, poor fit] | –
13 | CC1(C)Cc2c(c(N3CCOCC3)nc3sc4c(NN)ncnc4c23)CS1 | 2.81 | 11.6 µM [rising, single point] | 6.51 µM [rising, single point]
14 | COc1ccccc1CNC(=O)C(=O)NCC1OCCN1C(=O)c1ccc(Cl)cc1 (stereo unspecified) | 6.59 | – | –
15 | O=C(NNS(=O)(=O)c1ccccc1)c1ccc(S(=O)(=O)N2CCCCC2)cc1 | 0.911 | – | –
16 | CCc1ccc(C(=O)NNC(=O)C2CC(=O)N(c3ccc4c(c3)OCCO4)C2)cc1 (stereo unspecified) | 9.39 | 8.2 µM [rising, partial curve, poor fit] | –
17 | Cn1c(SCc2ccccc2)nnc1-c1ccncc1 | -4.26 | 0.651 µM [falling, partial curve, poor fit] | 0.651 µM [falling, single point]
18 | COc1ccc(C(=O)CSc2nnc(-c3ccccn3)n2Cc2ccco2)cc1 | 2.51 | 8.2 µM [rising, partial curve] | –
19 | CNC(=S)N1CCc2cc(OC)c(OC)cc2C1COc1ccc(OC)cc1 (stereo unspecified) | -6.23 | – | –
20 | Cc1ccc(NC(=S)/N=C(\N)Nc2nc(C)c3cc(C)c(C)cc3n2)cc1C | 127 | 0.651 µM [rising, partial curve, poor fit] | 13 µM [rising, partial curve]
21 | CCCCOCC1CN(c2ccccc2)C(=O)CS1 (stereo unspecified) | -3.84 | 3.26 µM [rising, single point] | –
22 | CN1CC=C2C(C#N)=C(N)C(C#N)(C#N)C(Cc3ccccc3)C2C1 (stereo unspecified) | – | – | 2.59 µM [rising, partial curve]
23 | CC(C(=O)NC1CCCCCC1)n1cc([N+](=O)[O-])cn1 (stereo unspecified) | -7.62 | 29.1 µM [falling, partial curve] | –
24 | CN(C)CCNC(=O)NC1CCCCC1 | 4.05 | 32.6 µM [falling, single point] | –
25 | CNC(=S)N/N=C(\C)c1ccc(C(C)(C)C)cc1 | -21.6 | 29.1 µM [falling, single point] | –
26 | COc1ccc(Cl)c(NC(=O)C/C(C)=N/NC(=O)CCc2ccccc2)c1 | -13.5 | – | –
27 | COc1ccc2c(c1)C1(Nc3ccccc3-c3nc4ccccc4n31)C(=O)N2C (stereo unspecified) | -33.4 | – | 32.6 µM [falling, single point]
28 | COc1cc(CNc2ccc3[nH]c(=O)[nH]c3c2)ccc1OCc1ccccc1C | -14.1 | 10.3 µM [falling, single point] | –
29 | CCOC(=O)CSc1[nH]c2cc(OC)ccc2c1[N+](=O)[O-] | -19.5 | 4.11 µM [falling, full curve] | –

From entry 27 up to 28, copied from above:
Row | Compound | cell number change [%] | AC50 [1] | AC50 [2]
27 | COc1ccc2c(c1)C1(Nc3ccccc3-c3nc4ccccc4n31)C(=O)N2C (stereo unspecified) | -33.4 | – | 32.6 µM [falling, single point]
28 | COc1cc(CNc2ccc3[nH]c(=O)[nH]c3c2)ccc1OCc1ccccc1C | -14.1 | 10.3 µM [falling, single point] | –
